Results on one substance are retold here after PMC3764826, “Bpur, the Lyme Disease Spirochete's PUR Domain Protein”.

Results are given in words; binding and its absence hold for the method and conditions named. In cells and extracts the contact can be indirect.

The target of the test is T1, Bpur (borrelial PUR domain protein), recombinant wild type initiating from the second AUG codon (Borrelia burgdorferi) (UniProt O51076).
T1 sequence: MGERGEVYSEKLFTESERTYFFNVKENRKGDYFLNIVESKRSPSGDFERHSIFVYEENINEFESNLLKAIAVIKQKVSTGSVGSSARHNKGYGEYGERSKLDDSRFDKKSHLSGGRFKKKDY
Description: co-IP; purified SsbP and Bpur, 1 μM each, incubated together at room temperature, then applied to Bpur-directed antiserum on protein A resin beads; eluates immunoblotted with SsbP- or Bpur-specific antiserum; controls: plain protein A beads, irrelevant IgG beads; both purified. (Immunoblotting shows a protein as a band on a membrane.)

With “SsbP (single-stranded DNA-binding protein of the cp32 prophage) (Borrelia burgdorferi)”, the binding result is given as “no binding (tested: 1 μM each)”.
